In ChEMBL document CHEMBL1268807, “Discovery of small molecule inhibitors of the PH domain leucine-rich repeat protein phosphatase (PHLPP) by chemical and virtual screening” (J Med Chem, 2010):

Assay: Inhibition of PHLPP expressed in 24 hrs serum starved Cos7 cells assessed as increase of Akt phosphorylation after 30 mins by immunoblotting
Details: COS-7

Compound: Cc1cc(/N=N/c2ccc(/N=N/c3ccc(O)c(C(=O)O)c3)cc2)c(N)cc1N
- IC50: 70 µM
